This note sets out measurements from paper PMC8764035.

Sequences of proteins named here, by UniProt entry; tags and fusion partners are left off.
UniProt Q16665: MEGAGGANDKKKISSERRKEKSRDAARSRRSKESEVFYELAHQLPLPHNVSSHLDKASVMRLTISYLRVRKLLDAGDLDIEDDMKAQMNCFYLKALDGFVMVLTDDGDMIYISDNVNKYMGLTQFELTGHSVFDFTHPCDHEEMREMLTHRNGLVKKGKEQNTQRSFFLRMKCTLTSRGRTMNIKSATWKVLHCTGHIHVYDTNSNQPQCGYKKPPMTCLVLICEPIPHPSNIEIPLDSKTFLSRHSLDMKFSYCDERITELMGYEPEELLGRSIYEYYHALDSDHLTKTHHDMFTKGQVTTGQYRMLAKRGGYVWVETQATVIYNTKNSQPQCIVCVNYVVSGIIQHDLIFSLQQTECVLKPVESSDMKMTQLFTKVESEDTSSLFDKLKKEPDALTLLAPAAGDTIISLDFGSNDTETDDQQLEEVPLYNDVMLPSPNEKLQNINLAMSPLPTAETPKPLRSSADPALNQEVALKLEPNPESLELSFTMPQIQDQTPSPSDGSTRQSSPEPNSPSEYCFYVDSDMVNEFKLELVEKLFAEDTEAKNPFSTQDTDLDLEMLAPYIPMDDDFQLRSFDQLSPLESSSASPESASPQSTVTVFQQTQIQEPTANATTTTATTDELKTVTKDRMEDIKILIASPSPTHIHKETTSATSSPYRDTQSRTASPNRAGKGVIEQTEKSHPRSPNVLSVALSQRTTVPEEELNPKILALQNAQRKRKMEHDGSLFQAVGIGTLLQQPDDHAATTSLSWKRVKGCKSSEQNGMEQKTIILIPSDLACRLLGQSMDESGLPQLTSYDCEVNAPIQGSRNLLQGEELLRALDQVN

No constants are given. Whether binding was seen depends on the method and setting. Binding seen in cells or lysates may run through a third protein.

The assay has as its target T1, Epididymal protein 3A (EDDM3A) (human (endogenous in BGC-823 and AGS)) (UniProt Q14507).
T1 sequence: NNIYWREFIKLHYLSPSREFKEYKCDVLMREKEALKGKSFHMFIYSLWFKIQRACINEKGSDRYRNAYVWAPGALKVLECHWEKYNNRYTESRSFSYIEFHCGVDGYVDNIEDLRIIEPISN
As to the kind of experiment: co-IP; GC cell lysate (extracts from BGC-823 and AGS cells) mixed with protein A beads containing anti-EDDM3A or anti-HIF-1α antibody, rotated at 4 °C for 3 h, washed three times with cold lysis buffer, analysed by western blot. On the technique in general: Immunoblotting shows a protein as a band on a membrane.

Take HIF-1α (from UniProt Q16665 1-826): the binding result was “no binding”.
